PMC9670204
Results are given in words; binding and its absence hold for the method and conditions named. In cells and extracts the contact can be indirect. Some entries that bind do so weakly or less than the wild type. Each block holds one molecule with its values, some of them ahead of it.

By UniProt entry, the sequences of proteins in these tests, tags left out.
UniProt Q9GZU1: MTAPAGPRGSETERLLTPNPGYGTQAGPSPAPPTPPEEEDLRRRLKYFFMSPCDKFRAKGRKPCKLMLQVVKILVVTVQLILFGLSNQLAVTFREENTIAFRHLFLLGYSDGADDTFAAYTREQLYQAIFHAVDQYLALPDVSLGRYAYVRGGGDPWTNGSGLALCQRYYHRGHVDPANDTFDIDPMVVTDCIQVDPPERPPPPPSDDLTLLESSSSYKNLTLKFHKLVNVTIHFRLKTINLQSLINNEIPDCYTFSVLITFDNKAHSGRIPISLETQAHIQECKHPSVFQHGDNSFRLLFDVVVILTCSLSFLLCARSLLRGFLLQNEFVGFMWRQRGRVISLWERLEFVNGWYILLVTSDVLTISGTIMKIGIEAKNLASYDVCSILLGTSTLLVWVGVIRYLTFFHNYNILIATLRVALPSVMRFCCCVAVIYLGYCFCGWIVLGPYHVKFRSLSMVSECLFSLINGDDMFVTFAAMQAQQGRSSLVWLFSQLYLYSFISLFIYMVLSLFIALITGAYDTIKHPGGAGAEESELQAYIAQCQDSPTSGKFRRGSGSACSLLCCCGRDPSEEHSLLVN
UniProt Q86T03: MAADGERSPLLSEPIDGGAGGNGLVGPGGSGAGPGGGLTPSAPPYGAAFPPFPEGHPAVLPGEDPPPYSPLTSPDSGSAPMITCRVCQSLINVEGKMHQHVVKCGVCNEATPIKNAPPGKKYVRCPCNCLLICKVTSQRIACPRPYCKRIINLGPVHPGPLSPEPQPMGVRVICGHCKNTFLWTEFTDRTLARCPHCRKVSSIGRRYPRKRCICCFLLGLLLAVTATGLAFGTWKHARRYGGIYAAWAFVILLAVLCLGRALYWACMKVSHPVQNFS
UniProt O75340: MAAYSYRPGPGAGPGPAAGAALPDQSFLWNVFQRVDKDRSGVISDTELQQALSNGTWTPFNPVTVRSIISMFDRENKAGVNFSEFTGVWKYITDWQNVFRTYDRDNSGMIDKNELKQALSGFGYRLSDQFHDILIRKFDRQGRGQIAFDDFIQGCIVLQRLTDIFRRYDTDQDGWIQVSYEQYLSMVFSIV

Assays:
TRPML1‐mCherry [1] = target: TRPML1‐mCherry (UniProt Q9GZU1); assay: co-IP; lysate of TRPML1‐mCherry stably expressing SH‐SY5Y cells transfected with GFP or GFP‐ALG2, treated with acrolein 2 h; anti‐RFP magnetic beads, 2 h at 4°C; 20 mM Tris–HCl pH 8.0, 150 mM NaCl, 1 mM CaCl2, 10% glycerol, 1% dodecyl maltoside, 0.2% deoxycholic acid
TMEM55B‐myc‐DDK = TMEM55B‐myc‐DDK (UniProt Q86T03); assay: co-IP; lysate of cells transfected with TMEM55B‐myc‐DDK, untreated or treated with 40 μM acrolein 2 h or 50 μM spm 4 h; anti‐flag M2 magnetic beads, 2 h at 4°C; 50 mM Hepes‐KOH pH 7.5, 300 mM KCl, 1 mM MgCl2, 1 mM EGTA, 10% glycerol, 1% Triton X‐100; blot for JIP4
TRPML1‐mCherry [2] = target: TRPML1‐mCherry (UniProt Q9GZU1); assay: co-IP; immunoprecipitation assays told only in the discussion; bait, constructs and conditions not stated

- binding (TRPML1‐mCherry [1]): binds
Molecule: GFP‐ALG2 (from UniProt O75340 1-191)

- binding (TMEM55B‐myc‐DDK): binds
B1: JNK‐interacting protein 4 (JIP4), endogenous (protein, UniProt O60271 1-1321)
chain: MELEDGVVYQEEPGGSGAVMSERVSGLAGSIYREFERLIGRYDEEVVKELMPLVVAVLENLDSVFAQDQEHQVELELLRDDNEQLITQYEREKALRKHAEEKFIEFEDSQEQEKKDLQTRVESLESQTRQLELKAKNYADQISRLEEREAELKKEYNALHQRHTEMIHNYMEHLERTKLHQLSGSDQLESTAHSRIRKERPISLGIFPLPAGDGLLTPDAQKGGETPGSEQWKFQELSQPRSHTSLKVSNSPEPQKAVEQEDELSDVSQGGSKATTPASTANSDVATIPTDTPLKEENEGFVKVTDAPNKSEISKHIEVQVAQETRNVSTGSAENEEKSEVQAIIESTPELDMDKDLSGYKGSSTPTKGIENKAFDRNTESLFEELSSAGSGLIGDVDEGADLLGMGREVENLILENTQLLETKNALNIVKNDLIAKVDELTCEKDVLQGELEAVKQAKLKLEEKNRELEEELRKARAEAEDARQKAKDDDDSDIPTAQRKRFTRVEMARVLMERNQYKERLMELQEAVRWTEMIRASRENPAMQEKKRSSIWQFFSRLFSSSSNTTKKPEPPVNLKYNAPTSHVTPSVKKRSSTLSQLPGDKSKAFDFLSEETEASLASRREQKREQYRQVKAHVQKEDGRVQAFGWSLPQKYKQVTNGQGENKMKNLPVPVYLRPLDEKDTSMKLWCAVGVNLSGGKTRDGGSVVGASVFYKDVAGLDTEGSKQRSASQSSLDKLDQELKEQQKELKNQEELSSLVWICTSTHSATKVLIIDAVQPGNILDSFTVCNSHVLCIASVPGARETDYPAGEDLSESGQVDKASLCGSMTSNSSAETDSLLGGITVVGCSAEGVTGAATSPSTNGASPVMDKPPEMEAENSEVDENVPTAEEATEATEGNAGSAEDTVDISQTGVYTEHVFTDPLGVQIPEDLSPVYQSSNDSDAYKDQISVLPNEQDLVREEAQKMSSLLPTMWLGAQNGCLYVHSSVAQWRKCLHSIKLKDSILSIVHVKGIVLVALADGTLAIFHRGVDGQWDLSNYHLLDLGRPHHSIRCMTVVHDKVWCGYRNKIYVVQPKAMKIEKSFDAHPRKESQVRQLAWVGDGVWVSIRLDSTLRLYHAHTYQHLQDVDIEPYVSKMLGTGKLGFSFVRITALMVSCNRLWVGTGNGVIISIPLTETNKTSGVPGNRPGSVIRVYGDENSDKVTPGTFIPYCSMAHAQLCFHGHRDAVKFFVAVPGQVISPQSSSSGTDLTGDKAGPSAQEPGSQTPLKSMLVISGGEGYIDFRMGDEGGESELLGEDLPLEPSVTKAERSHLIVWQVMYGNE

- binding (TRPML1‐mCherry [2]): no binding
B2: phosphorylated JIP4 (T217) (protein, UniProt O60271 1-1321)
chain: B1 chain
modifications: phosphorylated at T217
